Data reported in paper PMC9557730.
Results are given in words; binding and its absence hold for the method and conditions named. In cells and extracts the contact can be indirect. Some entries that bind do so weakly or less than the wild type. Tags and fused reporters may be left off the sequences shown.

How the values were obtained:
Assay in all cases: co-IP; C-terminal 3x FLAG-tagged Tfb2 variants coexpressed with endogenous Tfb2 in yeast; whole-cell extract (50 mM Hepes pH 7.6, 250 mM KOAc) on FLAG-M2 agarose 2 h at 4 °C; eluted with triple FLAG peptide; Western blot for Ssl2, normalised to Tfb2
[1] = target: T1, C-terminal 3× FLAG-tagged WT Tfb2 (Saccharomyces cerevisiae) (UniProt Q02939)
T1 sequence: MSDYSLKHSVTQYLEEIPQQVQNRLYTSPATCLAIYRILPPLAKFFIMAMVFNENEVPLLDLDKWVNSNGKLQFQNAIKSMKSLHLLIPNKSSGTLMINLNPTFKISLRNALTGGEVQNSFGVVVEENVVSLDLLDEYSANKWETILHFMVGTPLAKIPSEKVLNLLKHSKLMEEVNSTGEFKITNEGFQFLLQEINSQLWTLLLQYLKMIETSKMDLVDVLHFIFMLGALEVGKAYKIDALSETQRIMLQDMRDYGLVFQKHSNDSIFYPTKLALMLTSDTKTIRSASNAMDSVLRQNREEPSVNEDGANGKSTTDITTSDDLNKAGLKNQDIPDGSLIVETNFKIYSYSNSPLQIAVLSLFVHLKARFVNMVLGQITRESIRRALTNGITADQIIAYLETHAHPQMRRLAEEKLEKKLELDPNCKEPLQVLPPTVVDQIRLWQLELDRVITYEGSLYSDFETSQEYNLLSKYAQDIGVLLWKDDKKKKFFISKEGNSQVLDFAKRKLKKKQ

[2] = target: T2, Tfb2 E342F, C-terminal 3× FLAG-tagged (Saccharomyces cerevisiae) (UniProt Q02939)
T2 sequence: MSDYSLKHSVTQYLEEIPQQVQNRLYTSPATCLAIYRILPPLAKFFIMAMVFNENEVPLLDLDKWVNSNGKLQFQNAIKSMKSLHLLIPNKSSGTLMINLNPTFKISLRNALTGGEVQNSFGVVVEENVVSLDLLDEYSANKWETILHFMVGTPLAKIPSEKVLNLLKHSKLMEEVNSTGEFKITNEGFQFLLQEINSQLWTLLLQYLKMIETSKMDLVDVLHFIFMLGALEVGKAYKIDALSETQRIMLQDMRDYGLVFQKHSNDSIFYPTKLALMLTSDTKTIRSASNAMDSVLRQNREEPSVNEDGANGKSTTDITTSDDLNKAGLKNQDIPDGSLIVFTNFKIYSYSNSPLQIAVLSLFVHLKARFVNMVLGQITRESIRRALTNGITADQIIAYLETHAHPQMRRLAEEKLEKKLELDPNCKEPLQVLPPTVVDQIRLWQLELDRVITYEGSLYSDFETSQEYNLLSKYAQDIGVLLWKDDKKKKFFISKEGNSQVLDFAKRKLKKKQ

[3] = target: T3, Tfb2 E342R, C-terminal 3× FLAG-tagged (Saccharomyces cerevisiae) (UniProt Q02939)
T3 sequence: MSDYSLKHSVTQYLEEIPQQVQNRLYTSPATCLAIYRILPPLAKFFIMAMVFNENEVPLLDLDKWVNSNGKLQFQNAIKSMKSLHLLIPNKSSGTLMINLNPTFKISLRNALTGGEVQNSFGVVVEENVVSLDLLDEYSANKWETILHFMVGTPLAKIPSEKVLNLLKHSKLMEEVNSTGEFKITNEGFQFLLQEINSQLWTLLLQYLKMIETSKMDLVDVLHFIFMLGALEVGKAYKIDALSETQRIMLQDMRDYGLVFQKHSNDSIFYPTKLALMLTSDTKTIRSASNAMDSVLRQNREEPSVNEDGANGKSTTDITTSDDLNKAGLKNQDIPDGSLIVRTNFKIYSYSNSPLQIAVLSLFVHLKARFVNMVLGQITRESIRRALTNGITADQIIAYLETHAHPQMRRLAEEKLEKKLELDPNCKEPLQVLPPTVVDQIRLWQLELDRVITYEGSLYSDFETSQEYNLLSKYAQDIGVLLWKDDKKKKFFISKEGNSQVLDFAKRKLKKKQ

binding [1]: binds
binding [2]: no binding
binding [3]: no binding
B1: Ssl2 (protein, UniProt Q00578 1-843)
chain: MTDVEGYQPKSKGKIFPDMGESFFSSDEDSPATDAEIDENYDDNRETSEGRGERDTGAMVTGLKKPRKKTKSSRHTAADSSMNQMDAKDKALLQDTNSDIPADFVPDSVSGMFRSHDFSYLRLRPDHASRPLWISPSDGRIILESFSPLAEQAQDFLVTIAEPISRPSHIHEYKITAYSLYAAVSVGLETDDIISVLDRLSKVPVAESIINFIKGATISYGKVKLVIKHNRYFVETTQADILQMLLNDSVIGPLRIDSDHQVQPPEDVLQQQLQQTAGKPATNVNPNDVEAVFSAVIGGDNEREEEDDDIDAVHSFEIANESVEVVKKRCQEIDYPVLEEYDFRNDHRNPDLDIDLKPSTQIRPYQEKSLSKMFGNGRARSGIIVLPCGAGKTLVGITAACTIKKSVIVLCTSSVSVMQWRQQFLQWCTLQPENCAVFTSDNKEMFQTESGLVVSTYSMVANTRNRSHDSQKVMDFLTGREWGFIILDEVHVVPAAMFRRVVSTIAAHAKLGLTATLVREDDKIGDLNFLIGPKLYEANWMELSQKGHIANVQCAEVWCPMTAEFYQEYLRETARKRMLLYIMNPTKFQACQFLIQYHERRGDKIIVFSDNVYALQEYALKMGKPFIYGSTPQQERMNILQNFQYNDQINTIFLSKVGDTSIDLPEATCLIQISSHYGSRRQEAQRLGRILRAKRRNDEGFNAFFYSLVSKDTQEMYYSTKRQAFLVDQGYAFKVITHLHGMENIPNLAYASPRERRELLQEVLLKNEEAAGIEVGDDADNSVGRGSNGHKRFKSKAVRGEGSLSGLAGGEDMAYMEYSTNKNKELKEHHPLIRKMYYKNLKK
